PubChem BioAssay AID1053208 – Peter MacCallum Cancer Centre, 2014
The deposit covers about 17,000 reagents; shown is an unselected part. 788 of them (4.7%) count as active. 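Calls rest on z-score classes alone; an extra cut-off of viability at most 70% of control was not applied to them.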 A reagent listed more than once was tested more than once; the source does not tell the runs apart. Further read-outs or replicates are left out here.

Assay: 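Find knock-downs that sensitise mouse osteosarcoma cells to doxorubicin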 (primary screen)
System: mouse osteosarcoma cells, early-passage culture from an engineered mouse model of fibroblastic bone tumour
Reagent: siRNA pool against mouse genes, 40 nM
Duration: about 120 h (48 h before drug, then 72 h with drug)
Treatment: doxorubicin 100 nM for 72 h, roughly 30-40% inhibitory dose
Measured: 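Viability read as ATP luminescence after 72 h of 100 nM doxorubicin or none, duplicate wells averaged, scaled to non-targeting siRNA, then expressed as robust z-scores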
Reading the numbers: viability z-score with doxorubicin: higher = more viable cells under doxorubicin; viability z-score without drug: higher = more viable cells with knock-down alone
Rule for the call: 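a pool counts as active when its viability z-score with doxorubicin is -2 or below and its z-score without drug lies between -2 and 2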

Which result is listed for Or4e2 (olfactory receptor family 4 subfamily E member 2)?
combined z-score class: no change with or without drug; viability z-score with doxorubicin: -1.12; viability z-score without drug: -1.85; activity call: inactive

For Slc12a9, what was measured?
combined z-score class: no change with or without drug; viability z-score with doxorubicin: 1.12; viability z-score without drug: 1.01; activity call: inactive

What did the screen give for Slc12a9?
combined z-score class: no change with or without drug; viability z-score with doxorubicin: 0.9; viability z-score without drug: 1.01; activity call: inactive

How did the screen score Med30 (mediator complex subunit 30)?
combined z-score class: no change with or without drug; viability z-score with doxorubicin: 0; viability z-score without drug: 0.51; activity call: inactive

For Tead4 (TEA domain family member 4), what does the deposit list?
combined z-score class: no change with or without drug; viability z-score with doxorubicin: 0.22; viability z-score without drug: 1.85; activity call: inactive

What did the screen give for Anxa13 (annexin A13)?
combined z-score class: no change with or without drug; viability z-score with doxorubicin: -0.67; viability z-score without drug: 0.84; activity call: inactive

With Prl5a1 (prolactin family 5, subfamily a, member 1), what does the deposit list?
combined z-score class: no change with or without drug; viability z-score with doxorubicin: 0.22; viability z-score without drug: -0.51; activity call: inactive

Which result is listed for Zfp108 (zinc finger protein 108)?
combined z-score class: low cell count with doxorubicin only; viability z-score with doxorubicin: -2.02; viability z-score without drug: -0.67; activity call: active

For C630011I23, how do the results read?
combined z-score class: no change with or without drug; viability z-score with doxorubicin: 0.9; viability z-score without drug: 0.17; activity call: inactive

What did the screen give for Setd1b (SET domain containing 1B)?
combined z-score class: no change with or without drug; viability z-score with doxorubicin: 0.79; viability z-score without drug: 0; activity call: inactive

With Atp5mc2 (ATP synthase membrane subunit c locus 2), what does the deposit list?
combined z-score class: no change with or without drug; viability z-score with doxorubicin: -1.12; viability z-score without drug: -0.51; activity call: inactive

For Nfkbid, what was measured?
combined z-score class: no change with or without drug; viability z-score with doxorubicin: -0.9; viability z-score without drug: -0.84; activity call: inactive

With Dbx2 (developing brain homeobox 2), what does the deposit list?
combined z-score class: low cell count with doxorubicin only; viability z-score with doxorubicin: -3.15; viability z-score without drug: -0.67; activity call: active

For Kras (Kras proto-oncogene, GTPase), what was measured?
combined z-score class: no change with or without drug; viability z-score with doxorubicin: -0.22; viability z-score without drug: -0.67; activity call: inactive

For Pcdhb2 (protocadherin beta 2), how do the results read?
combined z-score class: no change with or without drug; viability z-score with doxorubicin: 1.12; viability z-score without drug: 0.67; activity call: inactive

For B230317F23Rik (RIKEN cDNA B230317F23 gene), what does the deposit list?
combined z-score class: no change with or without drug; viability z-score with doxorubicin: 0.79; viability z-score without drug: 0; activity call: inactive

For Slc25a36, how do the results read?
combined z-score class: no change with or without drug; viability z-score with doxorubicin: -0.45; viability z-score without drug: 0.17; activity call: inactive

What did the screen give for Taf12 (TATA-box binding protein associated factor 12)?
combined z-score class: no change with or without drug; viability z-score with doxorubicin: -1.35; viability z-score without drug: 0; activity call: inactive

Which result is listed for Letm1 (leucine zipper-EF-hand containing transmembrane protein 1)?
combined z-score class: no change with or without drug; viability z-score with doxorubicin: -1.35; viability z-score without drug: -0.84; activity call: inactive

Which result is listed for Ncald (neurocalcin delta)?
combined z-score class: low cell count with doxorubicin only; viability z-score with doxorubicin: -2.7; viability z-score without drug: -1.69; activity call: active

With Or1ad6 (olfactory receptor family 1 subfamily AD member 6), what does the deposit list?
combined z-score class: no change with or without drug; viability z-score with doxorubicin: -0.22; viability z-score without drug: -1.52; activity call: inactive

With Pdxk (pyridoxal (pyridoxine, vitamin B6) kinase), how do the results read?
combined z-score class: no change with or without drug; viability z-score with doxorubicin: -0.34; viability z-score without drug: -1.52; activity call: inactive

For Or7h8 (olfactory receptor family 7 subfamily H member 8), what was measured?
combined z-score class: no change with or without drug; viability z-score with doxorubicin: 0.45; viability z-score without drug: 0.34; activity call: inactive

How did the screen score Slc6a12?
combined z-score class: no change with or without drug; viability z-score with doxorubicin: 1.46; viability z-score without drug: 1.18; activity call: inactive

What did the screen give for Vmn1r228 (vomeronasal 1 receptor 228)?
combined z-score class: no change with or without drug; viability z-score with doxorubicin: 0.79; viability z-score without drug: 0.84; activity call: inactive

What did the screen give for 9330160A12?
combined z-score class: no change with or without drug; viability z-score with doxorubicin: -0.11; viability z-score without drug: 0.67; activity call: inactive

Which result is listed for Nmd3 (NMD3 ribosome export adaptor)?
combined z-score class: no change with or without drug; viability z-score with doxorubicin: -1.35; viability z-score without drug: -0.17; activity call: inactive

For Kdm5d (lysine demethylase 5D), what does the deposit list?
combined z-score class: no change with or without drug; viability z-score with doxorubicin: -0.56; viability z-score without drug: 1.52; activity call: inactive

Which result is listed for Ing5 (inhibitor of growth family, member 5)?
combined z-score class: no change with or without drug; viability z-score with doxorubicin: 0.67; viability z-score without drug: 0.84; activity call: inactive

For Lrrc23 (leucine rich repeat containing 23), what was measured?
combined z-score class: no change with or without drug; viability z-score with doxorubicin: 1.12; viability z-score without drug: -0.17; activity call: inactive

For Ubtd2 (ubiquitin domain containing 2), how do the results read?
combined z-score class: no change with or without drug; viability z-score with doxorubicin: -0.22; viability z-score without drug: -0.17; activity call: inactive

With Adamts4 (ADAM metallopeptidase with thrombospondin type 1 motif 4), what does the deposit list?
combined z-score class: no change with or without drug; viability z-score with doxorubicin: -1.69; viability z-score without drug: -0.67; activity call: inactive

With Blnk (B cell linker), what was measured?
combined z-score class: no change with or without drug; viability z-score with doxorubicin: 0.9; viability z-score without drug: 0.84; activity call: inactive

What is on record for Fmo4 (flavin containing monooxygenase 4)?
combined z-score class: no change with or without drug; viability z-score with doxorubicin: -1.8; viability z-score without drug: -0.84; activity call: inactive

For Txndc17 (thioredoxin domain containing 17), what does the deposit list?
combined z-score class: no change with or without drug; viability z-score with doxorubicin: 0; viability z-score without drug: -0.17; activity call: inactive

Which result is listed for Ttll13 (tubulin tyrosine ligase-like family, member 13)?
combined z-score class: no change with or without drug; viability z-score with doxorubicin: 1.12; viability z-score without drug: 0.84; activity call: inactive
